# Results published in PubChem BioAssay AID493014 (National Center for Advancing Translational Sciences (NCATS), 2011).
# About 170 (0.05%) of roughly 340,000 compounds were called active. The inconclusive results got no clear call from the source; some entries with a clear call stand among them for comparison. The call rests on the fitted dose curve; in most records, active means well fitted inhibition curve with a large enough effect in the signal ratio, with a control signal flat (not every such curve was filed as active); inconclusive means small, poorly fitted or top-dose-only effect, or effect the other way, or a change in a side signal; inactive means flat fitted curve, though single readings scatter; the % refers to the signal ratio. A potency beside an inconclusive call is a rough fit, not a confirmed value.
# Assay: qHTS Assay to Find Inhibitors of Chronic Active B-Cell Receptor Signaling;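 on activity change, negative = inhibition: plate controls were basal doxycycline-induced cells for no effect and cells given 10 µM MG132 for full effect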
# Conditions: ABC-DLBCL IkBa-CBG/CBR reporter, luminescence ratio (green luciferase fused to IkBa over red control in TMD8 lymphoma cells), 4 h; activity change, negative = inhibition: at 46.1 µM (top of the series) unless noted
# Outline: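 TMD8 ABC-DLBCL cells carrying doxycycline-inducible green luciferase fused to IkappaBalpha plus unfused red luciferase were exposed to compounds (up to 46 uM) for 4 hrs at 37C. Activity came from the overlap-corrected green/red luminescence ratio.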
# Potency means the concentration at half of the fitted maximal effect.
SMILES,"activity change, negative = inhibition",Potency
CCN(CC)Cc1c(O)ccc2c([N+](=O)[O-])c(C)n(-c3ccc(OC)cc3)c12,inconclusive: -13.7%,
COc1ccc(C2C(C(C)=O)=C(O)C(=O)N2c2ccc(Br)cc2)cc1 (stereo not given),inconclusive: 19%,
Cc1nc2sc(C(c3ccco3)N3CCN(c4ccccc4)CC3)c(O)n2n1 (stereo not given),inactive,
NC(=O)[C@@H]1CC2(CC(c3cccc(NC(=O)[C@H]4CCC(=O)N4)c3)=NO2)CN1C(=O)c1ccc(Cl)cc1 (stereo not given in full),inconclusive: 4.42%,
COc1ccc(-c2cc(C(=O)N3CCN(c4ccccc4OC)CC3)no2)cc1OC,,"inconclusive: 17.8 µM [falling, partial curve, poor fit]"
COc1ccc(C(=O)NC(=S)Nc2cccnc2)cc1OC,inconclusive: -1.21%,
O=c1c(Cl)c(Cl)cnn1Cc1nnc(-c2ccc(Cl)cc2)o1,inconclusive: 22.5%,
Cc1cc(C)c(S(=O)(=O)NCCc2ccncc2)c(C)c1,inconclusive: 3.23%,
COc1cccc(C(=O)N/N=C/C(Br)=C/c2ccccc2)c1,inconclusive: 180% [cytotoxic],
COc1cc(OC)c(OC)cc1/C=N/N(C)c1ccccc1,inconclusive: -1.65%,
COc1ccc(OC)c2c1C(=O)C(Cl)=C(Cl)C2=O,,"inconclusive: 5.01 µM [rising, partial curve, poor fit]"
Cc1ccc(S(=O)(=O)Nc2ccccc2/C=N/c2nc3ccccc3n2C(C)C)cc1,inactive,
O=C(CCCn1cnc([N+](=O)[O-])n1)Nc1cccc2ccccc12,inconclusive: -16.1%,
Fc1ccc(OCCOCCOc2cccc3[nH]ccc23)cc1,inconclusive: 1.88%,
Cc1ccc(NC(=S)N(Cc2ccco2)C(C)c2cccs2)c(Cl)c1 (stereo not given),inconclusive: -1.17%,
O=C(Cc1cccs1)Nc1ccc([N+](=O)[O-])cc1,inconclusive: 0.0853%,
O=C1CN(C(=O)c2cc3ccccc3oc2=O)C(c2ccc(F)cc2)c2cc(F)ccc2N1 (stereo not given),inactive,
O=S(=O)(c1cccs1)N1CCN(c2ccnc3cc(Cl)ccc23)CC1,,"inconclusive: 20 µM [falling, single point]"
CCOC(=O)N1CCC(N2CCCC(C(=O)c3cccc(OC(C)C)c3)C2)CC1 (stereo not given),inconclusive: -4.04%,
C#CCN(C)CC/C=C1\c2ccccc2CSc2ccccc21,inconclusive: 22.4%,
COC(=O)C1=C(C(=O)OC)[C@@H]2N(C)c3ccccc3[C@@]23C[C@@H](CO)N(C(=O)NCCBr)C3=N1,inconclusive: 11.9%,
Cc1ccc(NP(=O)(c2ccc(N(C)C)cc2NC(=O)c2cccs2)N2CCOCC2)cc1Cl (stereo not given),,"inconclusive: 6.51 µM [falling, single point]"
COc1cccc(/C=N/n2c(N)c(S(=O)(=O)c3cccs3)c3nc4ccccc4nc32)c1OC,inactive,
C(=N\Nc1ccccn1)/c1c[nH]c2ccccc12,,"inconclusive: 35.5 µM [falling, single point]"
CC1CCN(S(=O)(=O)c2ccc(C(=O)Nc3nnc(-c4ccncc4)o3)cc2)CC1,inconclusive: -0.0215%,

# Filtered by structure: the compounds so far containing fluorine (2)
SMILES,"activity change, negative = inhibition",Potency
Fc1ccc(OCCOCCOc2cccc3[nH]ccc23)cc1,inconclusive: 1.88%,
O=C1CN(C(=O)c2cc3ccccc3oc2=O)C(c2ccc(F)cc2)c2cc(F)ccc2N1 (stereo not given),inactive,

# Two entries from above, as tab-separated lines:
SMILES	activity change, negative = inhibition	Potency
COc1ccc(-c2cc(C(=O)N3CCN(c4ccccc4OC)CC3)no2)cc1OC		inconclusive: 17.8 µM [falling, partial curve, poor fit]
Cc1ccc(NP(=O)(c2ccc(N(C)C)cc2NC(=O)c2cccs2)N2CCOCC2)cc1Cl (stereo not given)		inconclusive: 6.51 µM [falling, single point]

# Next part:

SMILES,"activity change, negative = inhibition",Potency
C/C(=N\NC(=O)C1CCCC1)c1ccc(Cl)cc1,inconclusive: -3.52%,
CCCCCC(=O)Nc1cccc2ccccc12,,"inconclusive: 2.24 µM [falling, partial curve, poor fit]"
COc1ccc(C(=O)CC(=O)C(=O)Nc2ccccc2OC)cc1,inactive,
COc1ccc(OCCSc2ncccn2)cc1,inconclusive: 5.99%,
Cc1c(C(=O)Nc2cccc(Cl)c2)oc2ccc(S(=O)(=O)N3CCCCCC3)cc12,inconclusive: 15.1%,
COc1ccc(N2CCN(C(=S)Nc3ccc(C)cc3C)CC2)cc1,inactive,
Cc1ccc(C(OCC(O)CNC(CO)C(O)c2ccc([N+](=O)[O-])cc2)c2ccccc2)cc1 (stereo not given),inconclusive: -4.48%,
CC(=O)Nc1ccc(Nc2nc(C)c([N+](=O)[O-])c(Nc3ccccc3)n2)cc1,inconclusive: -1.22%,
CCN1C(=O)/C(=C/c2nc3ccccc3c(=O)n2-c2ccccc2)c2ccccc21,inactive,
O=c1[nH]c(/C=C\c2cccnc2)c([N+](=O)[O-])c(=O)[nH]1,,"inconclusive: 25.1 µM [falling, single point]"
COc1ccccc1C(=O)NC1CCCc2ccccc21 (stereo not given),inconclusive: 7.2%,
CCOC(=O)C(O)(NC(=O)c1cccnc1)C(F)(F)F (stereo not given),inconclusive: -0.877%,
COc1ccc(C2c3[nH]c4ccccc4c3CCN2C(=O)c2ccccc2C(C)=O)c(F)c1 (stereo not given),inconclusive: -18.6%,
COc1ccc(C(=O)NCc2ccc3c(c2)OCO3)c(OC)c1,inconclusive: 5.41%,
CCC1CCCCN1C(=O)C1CC(c2cc(Cl)c(OC)cc2OC)=NO1 (stereo not given),inactive,
COc1ccccc1-c1nc2n(n1)C(c1ccccc1Cl)C(C(N)=O)=C(C)N2 (stereo not given),,"inconclusive: 22.4 µM [falling, partial curve, poor fit]"
COC(=O)c1c(NC(=O)CSc2ncn[nH]2)sc(C)c1C,,"inconclusive: 20.6 µM [falling, partial curve]"
COC(=O)c1ccccc1S(=O)(=O)N1CCC(C(=O)N(C)CCOc2ccccc2)CC1,inconclusive: 5.56%,
O=c1cc(C(F)(F)F)[nH]c2c(OC(F)(F)F)cccc12,,"inconclusive: 2.82 µM [rising, partial curve, poor fit]"
COc1ccc(-c2nnc(Nc3ccc(S(=O)(=O)Nc4nccs4)cc3)c3ccccc23)cc1,,"inconclusive: 15.8 µM [rising, partial curve, poor fit]"
Cc1cccc(/C(N)=N/OC(=O)CCCN2C(=O)c3ccccc3C2=O)c1,inconclusive: 5.65%,
Cc1nc2ccccn2c1P(=Nc1ccccc1)(N(C)C)N(C)C,inconclusive: 0.634%,
CCc1nn(CC(=O)Nc2ccc(Br)c(C)c2)c(=N)s1,inconclusive: -0.376%,
O=C(Nc1c(Cl)cccc1Cl)C1CCC1,inconclusive: 3.24%,
O=C(O)c1ccc2c(c1)C(=O)N(c1cc(C(=O)O)ccc1Br)C2=O,inconclusive: 16.1%,
